Results on one molecule are retold here after paper PMC10873425.

By UniProt entry, the sequences of proteins in these tests, tags left out.
UniProt P09528: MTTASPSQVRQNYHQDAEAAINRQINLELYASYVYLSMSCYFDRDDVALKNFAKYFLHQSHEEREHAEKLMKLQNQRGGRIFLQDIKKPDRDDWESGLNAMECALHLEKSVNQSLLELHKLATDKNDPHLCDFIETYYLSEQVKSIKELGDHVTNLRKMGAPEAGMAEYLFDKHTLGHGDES

For experiment [1], the target named is ferritin heavy chain 1 (FTH1) (mouse (endogenous in MOVAS)) (UniProt P09528). The experiment can be described thus: co-IP; FTH1 and NCOA4 in cultured VSMCs (MOVAS) treated with Ang II+Bleo; NP-40 lysate, anti-FTH1, protein A/G PLUS-Agarose, immunoblotting; with or without PPARγ activation (rosiglitazone). On the technique in general: Immunoblotting shows a protein as a band on a membrane.

Experiment [2] has the same target. As to the kind of experiment: condition: only normal condition, without Ang II+Bleo; proximity ligation; in situ PLA (Duolink In Situ Red, anti-NCOA4 and anti-ferritin) in cultured VSMCs in normal condition (no Ang II+Bleo).
The target is the same in experiment [3]. As to the kind of experiment: proximity ligation; in situ PLA (Duolink In Situ Red, anti-NCOA4 and anti-ferritin) in cultured VSMCs upon Ang II+Bleo treatment; with or without rosiglitazone.

Results are given in words; binding and its absence hold for the method and conditions named. Binding seen in cells or lysates may run through a third protein. Some results given as binding are weak or reduced against the parent protein; the word gives no strength.

B1: nuclear receptor coactivator 4 (NCOA4), endogenous (protein, UniProt Q5U4H9 1-625)
chain: MNTSLEQSGCYSNRETLLRCSDARRELELAIGGVLRAEQQIKDNLREVKAQIHSCISRHLECLRSREVWLNEQVDLIYQLKEETLQQQAQQLYWLMGQFNCLIHQLEYTQNKDLANQVSVCLERLGSLALKPEDSTVLLFEADTSALRQTITTFGSLKTIQIPEHLMAHASSSSIGPFLEKRGYIQVPEQKSASSGTAVSLSEWLLVSKPAIGLQAPYVPSTNPQDWLIPKQTSENSQTSARACSFFSDAWGNLKGLENWLLNSHQQEIAGKPSSSKCNSHCSTSSFSPEAEKAEDVELLDQDELDLSDWLVTPQEPCELEKPVDGSWETSEKFKLLFQVFREPYNVSDWLVKPDSCTNCQGNQPRGVEIENLGNLKCLNDHLEAKKSVSVPGATISDGWLAQNHQDTWKVEEVCKANEPCTSFAECVCDDNCEKEAMYKWLLKKGGKDKNGMPMEPKSEPEKHRESLTLWLCPSRNELTEQAKAPKAMAPARIADSFHVIKNSSLSEWLMGPTCKGGPKDVPNTEERAGKEMLQSSMATSWCPFNTADWVLPGKKVGSLSQFPSGEDKWLLRKKAQEAFLNSPLQEERNFRPDCYGLPAVCDLFACMQLKVDKEKWLYRTPLQM
For B1, the binding entry is “binds” in experiment [1], “no binding” in experiment [2] and “binds” in experiment [3].
